No constants are given. Whether binding was seen depends on the method and setting. Some binding calls cover weakened binding; strength is not graded here.

Sequences of proteins named here, by UniProt entry; tags and fusion partners are left off. Residues count along the entry.
UniProt P10275, residues 672-910: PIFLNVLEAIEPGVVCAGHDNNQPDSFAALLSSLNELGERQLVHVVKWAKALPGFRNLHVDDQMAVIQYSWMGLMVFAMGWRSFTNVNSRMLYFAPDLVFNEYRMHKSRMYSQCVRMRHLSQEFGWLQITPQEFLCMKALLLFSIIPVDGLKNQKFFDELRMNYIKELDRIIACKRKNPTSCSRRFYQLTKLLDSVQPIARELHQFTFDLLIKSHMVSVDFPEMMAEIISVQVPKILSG

This passage reports binding results from patent US8124424B2, “Single molecule-format bioluminescent probe” (National Institute of Advanced Industrial Science and …, priority 2007, dated 2012).

The target of assay [1] is androgen receptor ligand binding domain (AR LBD; 672-910 AA) (human) (UniProt P10275). Description: split click beetle luciferase complementation, single-chain probe, HeLa cells, with and without 10^-5 M DHT.
Assay [2] has the same target. In words: split click beetle luciferase complementation, single-chain probe pSimbe-LXA, MCF-7 cells, with and without 10^-5 M DHT.
For assay [3] the target is unchanged. In words: split firefly luciferase complementation, single-chain probe pAR-mut, HeLa cells, 10^-5 M DHT.
Assay [4] has the same target. In words: split click beetle luciferase complementation, single-chain probe pSimbe-LXP, MCF-7 cells, with and without 10^-5 M DHT.
The target is the same in assay [5]. Description: split firefly luciferase complementation, single-chain probe pAR-NC, HeLa cells, 10^-5 M DHT.
The target is the same in assay [6]. In words: split firefly luciferase complementation, single-chain probe pAR-NC, HeLa cells, DHT with or without antagonists.

B1: reverse sequence of 'LXXLL' motif (698…686) from Xenopus TIF2 (peptide)
peptide: SSDQLLRHLIKHK
Turning to B1, the binding result in assay [1] and in assay [2] was “binds” each time.

B2: alanine mutant of the AR N-terminal motif (11 AA; 20…30) (peptide)
peptide: RGAAQNLFQSV
With B2, the binding entry in assay [3] is “binds”.

B3: forward sequence of 'LXXLL' motif (686…698) from Xenopus TIF2 (peptide)
peptide: KHKILHRLLQDSS
Turning to B3, the binding entry in assay [1] and in assay [4] was “binds” throughout.

B4: AR N-terminal motif peptide (11 AA; 20RGAFQNLFQSV30), 'FQNLF' motif of human AR NTD (peptide)
peptide: RGAFQNLFQSV
On to B4, for which the binding entry in assay [5], in assay [6] and in assay [1] was “binds” throughout.
